No constants are given. Whether binding was seen depends on the method and setting. A result given as binding can be weak or reduced; the word gives no strength.
Experiments:
Experiment in all cases: two-hybrid; Giles ORFs as baits in pGBGT7g (yeast AH109) against a random genomic fragment prey library of M. smegmatis mc2155 in pGADT7g (yeast Y187); positives retested by array-based Y2H with freshly prepared prey clones; background suppressed by 3-AT
[1] = target: Mycobacteriophage Giles gp31, endolysin (LysinA) (mycobacteriophage Giles)
[2] = target: Mycobacteriophage Giles gp47, phage repressor (putative repressor) (mycobacteriophage Giles)
[3] = target: Mycobacteriophage Giles gp29, phage integrase (mycobacteriophage Giles)

| binding [2] | Binder | also measured |
| --- | --- | --- |
| binds | universal stress protein (MSMEG_3811), fragment 1-101 (domain or fragment, UniProt A0QYW6 1-101) MSAYQTVVVGTDGSDSSLRAVDRAGQIAAASNAKLIIATAYFPQSEDSRAADVLKDEGYKMAGNAPIYAILREANDRAKAAGATDIEERPVVGAPVDALVE |  |
| binds | phosphoadenosine phosphosulfate reductase (MSMEG_1245), fragment 42-232 (domain or fragment, UniProt A0QRU8 42-232) LPETYEYLDRLETALGKPIARLNARKGFDHWFEVYRGTLPSPQMRWCTKKMKIEPLEEWIGDDYAVSYVAIRADEAGRKGYVSTKPNIRTVLPFVEGGIDHDGVLRILDEAGIGLPKYYEWRTRSGCYFCFYQRKAEWVGLAEKHPELLHRAIAIEAKVRQDAGADGDASFGEYAMKGRQYTWSGGESLPE |  |

Second part, the binder before the results:

| Binder | binding [2] | also measured |
| --- | --- | --- |
| sugar ABC transporter substrate-binding protein (PBP_Type 2 superfamily) (MSMEG_5574), fragment 64-181 (domain or fragment, UniProt A0R3S1 64-181) LRFVTLSENQARAKITASTAMGGGEFDVVMISNYETPQWAENGWLVDLSDYARNTPGYDEDDFIPSLKDSLSYQGDMYSVPFYGESSFLMYRKDLFEQAGIEMPRTPTWQQVADAAAE |  | binding [1]: binds |
| TetR family transcriptional regulator (MSMEG_2071), fragment 25-182 (domain or fragment, UniProt A0QU44 25-182) FAERGFHGTTLADITSAAGKSPAVFYRYFTDKEDLLAALAESFLHDVVEPSGLNLHLPDSPDDAEFFTSVVTGYWNMFKQNIGIMIAVAQLAATQQRFAEVQNSFRRFGIDIVVASVRRAQEQGHAVGLVPEHIGAAIALLFENFTTVFVGSSGLGVE |  | binding [1]: binds |
| Cyclododecanone Monoxygenase (MSMEG_5625), fragment 243-375 (domain or fragment, UniProt A0R3X1 243-375) LHDKKVALIGTGATGVQLVPYLGRDAQHLYVFQRTPSTVDERNNTPTDPEWVKTLQPGWQKERQRNFHAWTFEGMALGQPDLVCDFWTELGRNTAARVMALEDPASMTPEQFMAIREEEDYKVMERLRRRVDQ | binds |  |
| conserved hypothetical protein/sugar transporter (MSMEG_2001), fragment 142-219 (domain or fragment, UniProt A0QTX7 142-219) MLGEIFPNSYRGPALAVAVAVQWIANFVVTVTFPPFAALSLPLSYCFYSACALLSALFVLRFVRETKGRELEEMDDIA |  | binding [3]: binds |
| Putative ribosylglycohydrolase (MSMEG_1272), fragment 1-132 (domain or fragment, UniProt A0QRX4 1-132) MGSSRIELTAAQRDRAVGVLLGAAAGDALGAGYELNRPLAPDHPVGMIGGGLGPFAPGEWTDDTSMAIAIAEIASTGEDLRKEKPLDYLVERWEWWSRTAPDVGVQTRTVLSETAARGLCAQTARAVSEELH | binds |  |
| 50 S ribosomal protein L450S ribosomal protein L23 (MSMEG_1438), first 85 residues (domain or fragment, UniProt A0QSD3 1-85) MATITDPRDIILAPVISEKSYGLIEDNVYTFVVHPDSNKTQIKIAIEKIFDVKVDSVNTANRQGKRKRTRTGFGKRKSTKRAIVK |  | binding [3]: binds |
